Assay [1] has as its target cynomolgus PSMA on CHO cells (cynomolgus). Nature of the assay: FMAT screen, Cyno PSMA CHO cells.
The target is the same in assay [2]. Nature of the assay: FMAT Mirrorball direct cell binding of purified His-tagged VH (anti-His + Alexa Fluor-488 anti-mouse) on CHO cells expressing cynomolgus PSMA [panel cynoPSMA-CHO binding].

No constants are given. Whether binding was seen depends on the method and setting. Some results given as binding are weak or reduced against the parent protein; the word gives no strength.

B1: single VH domain antibody 4.1 (VHH)
VHH: QVQLVESGGGVVQPGRSLRLSCVASGFPFISYGMHWVRQAPGKGREWVAVISYDGSNRYYADSVKGRFTISRDNSKNTLYLQMNSLRPEDTAVYYCAKERIFGVLTPDDFDIWGQGTTVTVSS
For B1, the binding entry in assay [1] is “binds”.

B2: single VH domain antibody 5.1 (VHH)
VHH: QVQLVESGGGVVQPGRSLRLSCAASGFTFNNYGMHWVRQAPGKGLEWVAIISYDGNTKYYTDSVKGRFTISRDNSKNTLYLQMNSLRVEDTAVYYCAKGLWPSDVWGQGTTVTVSS
For the molecule B2, the binding entry in assay [1] is recorded as “binds”.

B3: single VH domain antibody 6.1 (VHH)
VHH: QVQLQESGPGLVKPSQTLSLTCTVSGGSISNSGYYWSWVRQHPGKDLEWIGFIYYNGSIHYNPSLKSRVIISVDTSKNQFSLKMNSVTAADTAVYYCARDGDDYGDYLRGQGTLVTVSS
In the case of B3, the binding result in assay [1] was “binds”.

B4: 2.10 (VHH)
VHH: EVQLVESGGGVVQPGRSLRLSCAASGFTFSGYGMHWVRQAPGKGLEWVAYISYDGSNRYYADSVKGRFTISRDNSKKTLSLQMNSLRAEDTAVYYCAKDPAWGLRLGESSSYDFDIWGQGTMVTVSS
As to B4, in assay [2], the binding result was “binds”.
